{"sequences": {"note": "Amino acid sequences for entries named in this document (tags omitted). Residues count along the entry.", "UniProt P06971, residues 34-747": "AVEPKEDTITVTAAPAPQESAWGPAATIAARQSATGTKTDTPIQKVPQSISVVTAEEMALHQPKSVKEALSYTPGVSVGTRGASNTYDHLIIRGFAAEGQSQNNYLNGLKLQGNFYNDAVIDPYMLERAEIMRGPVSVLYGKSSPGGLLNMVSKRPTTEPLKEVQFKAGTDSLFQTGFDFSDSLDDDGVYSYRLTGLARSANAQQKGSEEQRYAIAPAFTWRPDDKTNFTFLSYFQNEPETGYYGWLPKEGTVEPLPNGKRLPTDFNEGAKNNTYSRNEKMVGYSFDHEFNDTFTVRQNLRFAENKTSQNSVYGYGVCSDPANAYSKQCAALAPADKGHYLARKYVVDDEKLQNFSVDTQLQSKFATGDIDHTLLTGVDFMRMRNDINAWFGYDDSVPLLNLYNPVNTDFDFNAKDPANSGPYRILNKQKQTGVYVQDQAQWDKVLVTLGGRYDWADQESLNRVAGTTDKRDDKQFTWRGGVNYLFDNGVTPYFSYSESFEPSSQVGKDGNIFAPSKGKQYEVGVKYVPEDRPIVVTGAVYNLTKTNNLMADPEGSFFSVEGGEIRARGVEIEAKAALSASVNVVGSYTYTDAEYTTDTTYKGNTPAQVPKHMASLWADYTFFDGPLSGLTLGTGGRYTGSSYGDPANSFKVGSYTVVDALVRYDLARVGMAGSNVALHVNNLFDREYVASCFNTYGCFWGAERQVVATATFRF"}, "source": "paper PMC9586334", "about": "(Proceedings of the National Academy of Sciences of the …, 2022)", "binders": {"B1": {"name": "Llp, superinfection exclusion lipoprotein of bacteriophage T5 (protein, UniProt Q38162 16-77)", "chain": "CSTFGPKDIKCEAYYMQDHVKYKANVFDRKGDMFLVSPIMAYGSFWAPVSYFTEGNTCEGVF", "modifications": "lipid anchor on Cys1; Cys11-Cys58 disulphide bond"}}, "molecular_target": "FhuA as in the FhuA–Llp crystals (mature part, treated with TEV protease) (E. coli) (UniProt P06971)", "test": "crystal structure; FhuA–Llp co-overexpressed in E. coli, TEV-treated, in C8E4; 16% PEG 4K, 0.4 M (NH4)2SO4, 0.1 M NaAc, pH 4.5, 20 °C", "note": "Results are given in words; binding and its absence hold for the method and conditions named. Some binding calls cover weakened binding; strength is not graded here.", "data": [{"binder": "B1", "values": [{"measurement": "binding", "result": "binds"}]}]}
